{"source": "PubChem BioAssay AID1053208 (Peter MacCallum Cancer Centre, 2014)", "aim": "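Genes whose silencing cuts survival of bone tumour cells only with doxorubicin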 (primary screen)", "system": "mouse osteosarcoma cells, early-passage culture from an engineered mouse model of fibroblastic bone tumour", "reagent": "siRNA pool against mouse genes, 40 nM", "time to read-out": "about 120 h (48 h before drug, then 72 h with drug)", "treatment": "doxorubicin 100 nM for 72 h, roughly 30-40% inhibitory dose", "detection": "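Viability read as ATP luminescence after 72 h of 100 nM doxorubicin or none, duplicate wells averaged, scaled to non-targeting siRNA, then expressed as robust z-scores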", "reading the numbers": "viability z-score with doxorubicin: higher = more viable cells under doxorubicin; viability z-score without drug: higher = more viable cells with knock-down alone", "rule for the call": "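a pool counts as active when its viability z-score with doxorubicin is -2 or below and its z-score without drug lies between -2 and 2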", "note": "Here is a random part of about 17,000 deposited reagents. Of all reagents, 788 (4.7%) were called active. 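Calls rest on z-score classes alone; an extra cut-off of viability at most 70% of control was not applied to them.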 Not all columns of the deposit are shown. No sequences are given here."}
{"target gene":"Krtap5-4","combined z-score class":"no change with or without drug","viability z-score with doxorubicin":-1.57,"viability z-score without drug":-0.67,"activity call":"inactive"}
{"target gene":"Pip5k1a","combined z-score class":"no change with or without drug","viability z-score with doxorubicin":-0.11,"viability z-score without drug":0.51,"activity call":"inactive"}
{"target gene":"Tsnaxip1","combined z-score class":"no change with or without drug","viability z-score with doxorubicin":-0.67,"viability z-score without drug":-0.34,"activity call":"inactive"}
{"target gene":"Slc26a2","combined z-score class":"no change with or without drug","viability z-score with doxorubicin":1.12,"viability z-score without drug":0.51,"activity call":"inactive"}
{"target gene":"Or10ag57","combined z-score class":"no change with or without drug","viability z-score with doxorubicin":-0.79,"viability z-score without drug":-0.51,"activity call":"inactive"}
{"target gene":"Ndufab1","combined z-score class":"low cell count without drug only","viability z-score with doxorubicin":-1.8,"viability z-score without drug":-5.23,"activity call":"inactive"}
{"target gene":"Mto1","combined z-score class":"no change with or without drug","viability z-score with doxorubicin":-1.12,"viability z-score without drug":-0.84,"activity call":"inactive"}
{"target gene":"Atp8a1","combined z-score class":"low cell count with doxorubicin only","viability z-score with doxorubicin":-2.02,"viability z-score without drug":1.01,"activity call":"active"}
{"target gene":"Zfp711","combined z-score class":"no change with or without drug","viability z-score with doxorubicin":-1.35,"viability z-score without drug":-1.85,"activity call":"inactive"}
{"target gene":"Cops8","combined z-score class":"no change with or without drug","viability z-score with doxorubicin":-0.9,"viability z-score without drug":0.84,"activity call":"inactive"}
{"target gene":"Yipf4","combined z-score class":"high cell count with doxorubicin only","viability z-score with doxorubicin":2.14,"viability z-score without drug":0.67,"activity call":"inactive"}
{"target gene":"Calm4","combined z-score class":"no change with or without drug","viability z-score with doxorubicin":0.34,"viability z-score without drug":-0.17,"activity call":"inactive"}
{"target gene":"Rbpms","combined z-score class":"low cell count with doxorubicin only","viability z-score with doxorubicin":-4.72,"viability z-score without drug":-0.17,"activity call":"active"}
{"target gene":"Zbtb48","combined z-score class":"no change with or without drug","viability z-score with doxorubicin":-0.67,"viability z-score without drug":-0.51,"activity call":"inactive"}
{"target gene":"Med17","combined z-score class":"no change with or without drug","viability z-score with doxorubicin":-1.8,"viability z-score without drug":-0.84,"activity call":"inactive"}
{"target gene":"Tbc1d24","combined z-score class":"no change with or without drug","viability z-score with doxorubicin":0.34,"viability z-score without drug":0.84,"activity call":"inactive"}
{"target gene":"Shbg","combined z-score class":"no change with or without drug","viability z-score with doxorubicin":0.22,"viability z-score without drug":0.34,"activity call":"inactive"}
{"target gene":"Ift172","combined z-score class":"no change with or without drug","viability z-score with doxorubicin":-0.11,"viability z-score without drug":0.84,"activity call":"inactive"}
{"target gene":"Hadh","combined z-score class":"no change with or without drug","viability z-score with doxorubicin":0.45,"viability z-score without drug":-1.01,"activity call":"inactive"}
{"target gene":"Zfp105","combined z-score class":"no change with or without drug","viability z-score with doxorubicin":-0.22,"viability z-score without drug":1.35,"activity call":"inactive"}
{"target gene":"Zbtb25","combined z-score class":"no change with or without drug","viability z-score with doxorubicin":0.45,"viability z-score without drug":1.01,"activity call":"inactive"}
{"target gene":"Gtf3c2","combined z-score class":"no change with or without drug","viability z-score with doxorubicin":-0.45,"viability z-score without drug":-1.01,"activity call":"inactive"}
{"target gene":"Tsc2","combined z-score class":"high cell count without drug only","viability z-score with doxorubicin":0.11,"viability z-score without drug":2.36,"activity call":"inactive"}
{"target gene":"Endov","combined z-score class":"no change with or without drug","viability z-score with doxorubicin":0.67,"viability z-score without drug":-0.51,"activity call":"inactive"}
{"target gene":"Gpx1","combined z-score class":"no change with or without drug","viability z-score with doxorubicin":-0.22,"viability z-score without drug":-0.51,"activity call":"inactive"}
{"target gene":"Pramel7","combined z-score class":"no change with or without drug","viability z-score with doxorubicin":0.67,"viability z-score without drug":-0.84,"activity call":"inactive"}
{"target gene":"Clec1b","combined z-score class":"no change with or without drug","viability z-score with doxorubicin":1.24,"viability z-score without drug":-1.01,"activity call":"inactive"}
{"target gene":"Aass","combined z-score class":"high cell count without drug only","viability z-score with doxorubicin":-0.22,"viability z-score without drug":2.7,"activity call":"inactive"}

Look-ups from the list.
Result for Pramel7 in “viability z-score without drug”: -0.84
Rbpms, combined z-score class = low cell count with doxorubicin only
Entry for Tbc1d24 under “viability z-score without drug”: 0.84
